From the supplement of paper PMC10849652
Some of the results follow.

The chains behind the UniProt entries cited, without tags or fusion partners. Where a name states a change or a piece, a line headed by the entry shows the natural chain unless it says otherwise.
UniProt P02730: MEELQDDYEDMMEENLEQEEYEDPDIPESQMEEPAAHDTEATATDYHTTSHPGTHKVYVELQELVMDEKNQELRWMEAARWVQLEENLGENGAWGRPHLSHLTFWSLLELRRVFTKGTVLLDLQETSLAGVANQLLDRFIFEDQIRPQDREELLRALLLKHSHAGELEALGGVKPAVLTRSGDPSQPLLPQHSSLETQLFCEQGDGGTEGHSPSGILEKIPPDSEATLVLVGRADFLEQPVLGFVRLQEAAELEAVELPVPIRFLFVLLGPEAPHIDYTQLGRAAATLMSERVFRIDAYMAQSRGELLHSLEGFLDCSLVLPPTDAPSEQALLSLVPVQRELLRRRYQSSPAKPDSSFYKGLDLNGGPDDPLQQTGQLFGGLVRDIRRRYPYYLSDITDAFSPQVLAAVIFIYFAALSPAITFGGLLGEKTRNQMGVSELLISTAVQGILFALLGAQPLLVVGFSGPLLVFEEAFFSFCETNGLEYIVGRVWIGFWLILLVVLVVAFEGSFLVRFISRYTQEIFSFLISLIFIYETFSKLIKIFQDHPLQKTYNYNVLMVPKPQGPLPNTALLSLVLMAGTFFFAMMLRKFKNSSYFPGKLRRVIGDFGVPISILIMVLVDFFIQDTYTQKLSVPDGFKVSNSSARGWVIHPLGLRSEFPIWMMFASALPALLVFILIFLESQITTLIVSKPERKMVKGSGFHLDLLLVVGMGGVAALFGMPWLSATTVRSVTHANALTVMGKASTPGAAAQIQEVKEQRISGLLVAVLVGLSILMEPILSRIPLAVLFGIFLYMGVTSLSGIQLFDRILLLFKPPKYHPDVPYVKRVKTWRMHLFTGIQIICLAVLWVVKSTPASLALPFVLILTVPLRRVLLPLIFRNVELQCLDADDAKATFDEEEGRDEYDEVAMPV
UniProt Q5BKX6: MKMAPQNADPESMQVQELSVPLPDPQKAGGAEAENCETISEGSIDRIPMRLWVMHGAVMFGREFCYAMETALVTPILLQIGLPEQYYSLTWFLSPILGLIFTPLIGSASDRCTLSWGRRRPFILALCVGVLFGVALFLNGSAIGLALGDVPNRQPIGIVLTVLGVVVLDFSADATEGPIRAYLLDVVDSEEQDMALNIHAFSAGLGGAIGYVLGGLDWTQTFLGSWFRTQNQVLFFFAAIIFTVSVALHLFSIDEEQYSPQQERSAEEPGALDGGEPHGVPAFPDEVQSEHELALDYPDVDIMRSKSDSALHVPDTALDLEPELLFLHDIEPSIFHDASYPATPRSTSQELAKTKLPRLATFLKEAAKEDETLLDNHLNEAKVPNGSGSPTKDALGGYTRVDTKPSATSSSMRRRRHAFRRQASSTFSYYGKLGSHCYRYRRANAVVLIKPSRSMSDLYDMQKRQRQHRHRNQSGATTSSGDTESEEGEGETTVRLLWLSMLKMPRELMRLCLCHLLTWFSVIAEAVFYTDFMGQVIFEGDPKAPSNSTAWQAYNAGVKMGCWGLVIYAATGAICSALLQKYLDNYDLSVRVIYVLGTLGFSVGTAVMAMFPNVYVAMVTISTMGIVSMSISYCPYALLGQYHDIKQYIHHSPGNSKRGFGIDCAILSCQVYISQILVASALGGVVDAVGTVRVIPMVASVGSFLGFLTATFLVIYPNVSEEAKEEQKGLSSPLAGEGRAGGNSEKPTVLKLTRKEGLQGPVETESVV
UniProt Q15043: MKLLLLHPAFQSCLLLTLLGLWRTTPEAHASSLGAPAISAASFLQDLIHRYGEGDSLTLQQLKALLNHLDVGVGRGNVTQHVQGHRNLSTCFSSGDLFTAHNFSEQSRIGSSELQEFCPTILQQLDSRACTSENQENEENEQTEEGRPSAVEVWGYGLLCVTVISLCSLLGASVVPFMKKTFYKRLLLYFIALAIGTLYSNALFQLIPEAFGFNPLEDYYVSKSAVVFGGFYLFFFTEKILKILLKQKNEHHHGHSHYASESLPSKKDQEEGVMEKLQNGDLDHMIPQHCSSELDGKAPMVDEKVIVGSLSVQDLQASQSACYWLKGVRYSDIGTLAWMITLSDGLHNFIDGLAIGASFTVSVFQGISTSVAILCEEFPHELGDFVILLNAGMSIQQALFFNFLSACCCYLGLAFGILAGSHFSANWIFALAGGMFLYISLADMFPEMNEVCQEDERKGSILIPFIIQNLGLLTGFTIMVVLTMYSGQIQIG
UniProt Q9UPY5: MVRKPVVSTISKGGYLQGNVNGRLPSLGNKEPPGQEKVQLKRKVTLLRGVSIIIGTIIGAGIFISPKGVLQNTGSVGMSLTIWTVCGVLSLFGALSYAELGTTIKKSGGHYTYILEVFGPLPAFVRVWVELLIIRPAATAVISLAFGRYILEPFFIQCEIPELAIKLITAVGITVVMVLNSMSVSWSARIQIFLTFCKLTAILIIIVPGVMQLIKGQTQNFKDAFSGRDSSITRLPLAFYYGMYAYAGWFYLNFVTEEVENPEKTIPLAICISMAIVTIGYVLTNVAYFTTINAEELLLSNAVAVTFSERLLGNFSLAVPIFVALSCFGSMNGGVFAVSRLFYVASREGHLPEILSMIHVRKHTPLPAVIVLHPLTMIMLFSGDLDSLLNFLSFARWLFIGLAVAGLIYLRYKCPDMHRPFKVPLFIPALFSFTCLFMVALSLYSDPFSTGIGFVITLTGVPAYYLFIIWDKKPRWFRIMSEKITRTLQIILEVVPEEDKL
UniProt P53794: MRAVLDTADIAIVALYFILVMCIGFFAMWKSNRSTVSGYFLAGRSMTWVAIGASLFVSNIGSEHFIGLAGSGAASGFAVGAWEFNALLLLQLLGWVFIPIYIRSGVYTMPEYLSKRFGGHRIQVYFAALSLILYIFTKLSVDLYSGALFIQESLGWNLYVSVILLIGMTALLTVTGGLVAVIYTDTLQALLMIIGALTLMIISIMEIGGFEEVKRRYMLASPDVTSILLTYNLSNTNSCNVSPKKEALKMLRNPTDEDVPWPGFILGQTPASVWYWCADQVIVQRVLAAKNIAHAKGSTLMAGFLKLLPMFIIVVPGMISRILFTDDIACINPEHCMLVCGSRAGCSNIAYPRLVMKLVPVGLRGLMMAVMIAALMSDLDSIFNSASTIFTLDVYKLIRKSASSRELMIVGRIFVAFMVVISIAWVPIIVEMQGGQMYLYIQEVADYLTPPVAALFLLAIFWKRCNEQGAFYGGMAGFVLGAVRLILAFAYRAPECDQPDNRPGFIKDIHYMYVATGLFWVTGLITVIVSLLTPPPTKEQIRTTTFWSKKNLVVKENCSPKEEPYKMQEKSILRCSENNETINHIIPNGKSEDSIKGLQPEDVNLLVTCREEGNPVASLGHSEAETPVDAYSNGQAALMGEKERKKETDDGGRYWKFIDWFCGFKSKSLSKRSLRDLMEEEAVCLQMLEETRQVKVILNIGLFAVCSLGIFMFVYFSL
UniProt A1A5C7: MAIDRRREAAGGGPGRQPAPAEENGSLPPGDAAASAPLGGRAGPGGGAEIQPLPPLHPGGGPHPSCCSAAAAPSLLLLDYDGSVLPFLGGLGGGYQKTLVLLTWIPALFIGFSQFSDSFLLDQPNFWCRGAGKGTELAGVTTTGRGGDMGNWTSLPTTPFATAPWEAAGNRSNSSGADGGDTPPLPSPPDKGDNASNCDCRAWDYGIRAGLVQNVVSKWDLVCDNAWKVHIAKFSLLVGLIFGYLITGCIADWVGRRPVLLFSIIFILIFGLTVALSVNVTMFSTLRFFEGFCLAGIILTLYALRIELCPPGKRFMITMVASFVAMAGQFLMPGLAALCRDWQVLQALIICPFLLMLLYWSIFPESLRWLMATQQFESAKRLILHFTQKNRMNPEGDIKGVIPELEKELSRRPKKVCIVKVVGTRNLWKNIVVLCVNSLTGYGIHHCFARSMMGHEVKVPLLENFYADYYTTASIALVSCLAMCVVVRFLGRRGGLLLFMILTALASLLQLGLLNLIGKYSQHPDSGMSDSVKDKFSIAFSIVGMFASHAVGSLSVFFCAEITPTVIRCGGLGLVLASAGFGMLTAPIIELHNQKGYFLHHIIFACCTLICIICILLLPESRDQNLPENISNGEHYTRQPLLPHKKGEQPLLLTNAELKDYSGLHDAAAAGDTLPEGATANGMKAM
UniProt Q9BSK2: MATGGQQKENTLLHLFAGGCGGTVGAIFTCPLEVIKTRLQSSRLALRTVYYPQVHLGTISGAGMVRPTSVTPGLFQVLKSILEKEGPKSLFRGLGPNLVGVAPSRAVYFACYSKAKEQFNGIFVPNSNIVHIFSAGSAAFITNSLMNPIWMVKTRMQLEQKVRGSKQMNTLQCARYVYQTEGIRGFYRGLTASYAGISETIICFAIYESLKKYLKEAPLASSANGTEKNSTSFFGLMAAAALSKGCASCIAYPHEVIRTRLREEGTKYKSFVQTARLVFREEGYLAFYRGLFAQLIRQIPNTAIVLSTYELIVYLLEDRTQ
UniProt Q70HW3: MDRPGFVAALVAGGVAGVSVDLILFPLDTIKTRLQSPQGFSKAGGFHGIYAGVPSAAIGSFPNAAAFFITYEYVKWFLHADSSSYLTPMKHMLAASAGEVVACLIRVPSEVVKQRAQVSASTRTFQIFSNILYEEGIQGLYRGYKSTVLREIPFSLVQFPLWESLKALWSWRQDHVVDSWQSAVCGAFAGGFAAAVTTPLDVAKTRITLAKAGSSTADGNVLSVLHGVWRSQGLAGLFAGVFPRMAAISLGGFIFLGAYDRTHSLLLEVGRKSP
UniProt Q969S0: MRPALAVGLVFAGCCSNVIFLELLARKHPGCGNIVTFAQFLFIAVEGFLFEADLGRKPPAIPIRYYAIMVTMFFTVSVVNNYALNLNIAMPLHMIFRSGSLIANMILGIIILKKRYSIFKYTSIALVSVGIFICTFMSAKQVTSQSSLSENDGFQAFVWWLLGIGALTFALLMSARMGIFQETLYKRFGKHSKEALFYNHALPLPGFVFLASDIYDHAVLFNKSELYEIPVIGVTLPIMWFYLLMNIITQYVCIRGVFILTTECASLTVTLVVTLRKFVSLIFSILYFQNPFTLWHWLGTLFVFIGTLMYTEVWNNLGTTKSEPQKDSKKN
UniProt O75387: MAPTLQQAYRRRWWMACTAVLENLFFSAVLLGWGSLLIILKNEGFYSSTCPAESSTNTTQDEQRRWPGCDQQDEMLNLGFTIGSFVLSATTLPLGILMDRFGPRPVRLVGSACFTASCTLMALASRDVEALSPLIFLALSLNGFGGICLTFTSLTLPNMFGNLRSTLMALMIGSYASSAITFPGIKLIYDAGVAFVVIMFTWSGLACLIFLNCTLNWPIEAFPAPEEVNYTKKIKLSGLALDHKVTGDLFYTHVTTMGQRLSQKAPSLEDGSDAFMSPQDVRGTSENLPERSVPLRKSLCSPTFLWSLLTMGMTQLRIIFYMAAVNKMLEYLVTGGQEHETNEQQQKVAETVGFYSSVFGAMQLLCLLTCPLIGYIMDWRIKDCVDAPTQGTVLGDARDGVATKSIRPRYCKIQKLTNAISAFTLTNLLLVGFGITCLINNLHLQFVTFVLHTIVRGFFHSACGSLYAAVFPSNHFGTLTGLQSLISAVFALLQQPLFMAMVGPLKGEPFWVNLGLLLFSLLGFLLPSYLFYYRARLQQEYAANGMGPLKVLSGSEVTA
UniProt Q14542: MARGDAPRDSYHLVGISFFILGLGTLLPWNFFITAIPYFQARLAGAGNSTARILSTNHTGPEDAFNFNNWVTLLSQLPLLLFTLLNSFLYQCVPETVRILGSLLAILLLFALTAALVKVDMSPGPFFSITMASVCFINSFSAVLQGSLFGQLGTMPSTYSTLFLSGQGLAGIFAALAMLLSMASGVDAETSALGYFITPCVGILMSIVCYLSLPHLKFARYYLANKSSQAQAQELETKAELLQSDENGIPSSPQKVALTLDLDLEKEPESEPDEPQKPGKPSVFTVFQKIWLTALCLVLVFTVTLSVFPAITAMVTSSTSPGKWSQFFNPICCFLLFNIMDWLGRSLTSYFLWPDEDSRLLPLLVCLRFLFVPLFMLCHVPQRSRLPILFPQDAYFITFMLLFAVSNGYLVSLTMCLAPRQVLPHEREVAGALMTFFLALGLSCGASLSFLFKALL
UniProt O76082: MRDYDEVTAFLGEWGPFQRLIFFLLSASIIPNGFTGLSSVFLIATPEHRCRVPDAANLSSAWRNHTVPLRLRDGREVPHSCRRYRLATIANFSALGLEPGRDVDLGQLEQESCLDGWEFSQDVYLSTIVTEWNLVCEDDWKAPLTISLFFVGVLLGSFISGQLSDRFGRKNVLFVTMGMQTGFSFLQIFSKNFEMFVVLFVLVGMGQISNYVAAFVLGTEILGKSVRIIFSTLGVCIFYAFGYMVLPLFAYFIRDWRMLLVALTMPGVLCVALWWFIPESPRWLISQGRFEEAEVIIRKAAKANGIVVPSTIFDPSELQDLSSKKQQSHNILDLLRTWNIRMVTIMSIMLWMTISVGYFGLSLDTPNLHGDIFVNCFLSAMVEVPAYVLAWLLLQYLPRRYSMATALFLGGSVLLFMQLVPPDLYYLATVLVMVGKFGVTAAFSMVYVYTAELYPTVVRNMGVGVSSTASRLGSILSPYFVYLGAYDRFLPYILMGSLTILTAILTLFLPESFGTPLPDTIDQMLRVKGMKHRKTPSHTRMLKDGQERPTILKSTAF

Compound: Cc1cc(Nc2cc(CN3CCOCC3)c3nc(C)c(Cc4ccc(Cl)cc4F)n3n2)n[nH]1 [gandotinib]
Experiment: log2 fold change, soluble protein after heating vs DMSO (PISA); higher = thermal stabilisation; K562 lysate, 10 uM; active = over 0.2 and 3.5 SD of the protein, either way, in both replicates (recomputed)
Outline: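 Pellets of K562 cells were dounce-homogenised in PBS pH 7.4 with 1 mM MgCl2, and the crude extract was held at 1 mg/mL protein for a 30 min treatment with 10 μM compound. Aliquots were heated for 3 min over 48°C-58°C and pooled before NP-40 was added to 0.5% at 4°C. The supernatant from 21,000xg for 90 min was quantified by TMTpro 16plex LC-MS/MS with channel sums equalised. Values are reported from duplicates as log-two fold change in thermal stability relative to solvent controls.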

log2 fold change, inactive:
SLC4A1 (UniProt P02730) -0.027
SLC45A4 isoform 3 (UniProt Q5BKX6) -0.104
SLC39A14 (UniProt Q15043) 0.014
SLC7A11 (UniProt Q9UPY5) 0.06
SLC5A3 (UniProt P53794) -0.011
SLC22A23 (UniProt A1A5C7) 0.06
SLC25A33 (UniProt Q9BSK2) 0.004
SLC25A44 (UniProt Q96H78) 0.047
SLC25A26 (UniProt Q70HW3) 0.1
SLC35B4 (UniProt Q969S0) 0.058
SLC25A17 (UniProt O43808) 0.072
SLC35B3 (UniProt Q9H1N7) 0.061
SLC25A51 (UniProt Q9H1U9) -0.047
SLC35F2 (UniProt Q8IXU6) 0.145
SLC26A2 (UniProt P50443) 0.098
SLC48A1 (UniProt Q6P1K1) 0.082
SLC43A1 (UniProt O75387) 0.05
SLC29A2 (UniProt Q14542) 0.159
SLC22A5 isoform 3 (UniProt O76082) 0.118
SLC3A2 (UniProt F5H867) 0.25
SLC9A6 isoform 2 (UniProt Q92581) -0.183
SLC3A2 (UniProt F5GZS6) 0.061

Already shown: entries from further up.
log2 fold change, inactive:
SLC45A4 isoform 3 (UniProt Q5BKX6) -0.104
SLC39A14 (UniProt Q15043) 0.014
